# Test results published in the supplement of paper PMC6411743.
# ± gives the standard deviation of the averaged measurements. The list shows a part of the results.
# Legend:
# Assay in all cases: NP40-soluble protein abundance relative to vehicle (solubility fold change) (ratio); higher = more soluble protein in presence of GTP
# [1] = target: T1, A0A087WXR2|F5GWK5 and related entries (UniProt Q9Y365)
# T1 sequence (whole entry): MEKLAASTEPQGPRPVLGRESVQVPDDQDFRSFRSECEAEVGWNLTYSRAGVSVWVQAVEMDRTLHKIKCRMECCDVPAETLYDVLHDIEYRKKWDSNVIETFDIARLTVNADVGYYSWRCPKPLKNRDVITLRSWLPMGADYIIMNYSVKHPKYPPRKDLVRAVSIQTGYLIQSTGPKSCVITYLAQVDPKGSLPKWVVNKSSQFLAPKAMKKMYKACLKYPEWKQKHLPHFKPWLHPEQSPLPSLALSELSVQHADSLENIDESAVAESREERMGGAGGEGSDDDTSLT
# How it was run: (§1)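 Crude Jurkat lysate, prepared by Dounce homogenisation, was exposed to eight concentrations from 0.1 to 10 mM for 10 min at room temperature and then 3 min at 37 °C. Solubilisation used 0.8% NP40 with benzonase for 60 min at 4 °C, followed by ultracentrifugation and TMT labelling of the supernatant for LC-MS/MS. After vsn normalisation of intensities, each value is the fold change against the detergent-processed vehicle within each replicate, across three independent experiments.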
# [2] = target: T2, A0A087WZD8|C9JNH7 and related entries (UniProt Q8WUA4)
# T2 sequence (whole entry): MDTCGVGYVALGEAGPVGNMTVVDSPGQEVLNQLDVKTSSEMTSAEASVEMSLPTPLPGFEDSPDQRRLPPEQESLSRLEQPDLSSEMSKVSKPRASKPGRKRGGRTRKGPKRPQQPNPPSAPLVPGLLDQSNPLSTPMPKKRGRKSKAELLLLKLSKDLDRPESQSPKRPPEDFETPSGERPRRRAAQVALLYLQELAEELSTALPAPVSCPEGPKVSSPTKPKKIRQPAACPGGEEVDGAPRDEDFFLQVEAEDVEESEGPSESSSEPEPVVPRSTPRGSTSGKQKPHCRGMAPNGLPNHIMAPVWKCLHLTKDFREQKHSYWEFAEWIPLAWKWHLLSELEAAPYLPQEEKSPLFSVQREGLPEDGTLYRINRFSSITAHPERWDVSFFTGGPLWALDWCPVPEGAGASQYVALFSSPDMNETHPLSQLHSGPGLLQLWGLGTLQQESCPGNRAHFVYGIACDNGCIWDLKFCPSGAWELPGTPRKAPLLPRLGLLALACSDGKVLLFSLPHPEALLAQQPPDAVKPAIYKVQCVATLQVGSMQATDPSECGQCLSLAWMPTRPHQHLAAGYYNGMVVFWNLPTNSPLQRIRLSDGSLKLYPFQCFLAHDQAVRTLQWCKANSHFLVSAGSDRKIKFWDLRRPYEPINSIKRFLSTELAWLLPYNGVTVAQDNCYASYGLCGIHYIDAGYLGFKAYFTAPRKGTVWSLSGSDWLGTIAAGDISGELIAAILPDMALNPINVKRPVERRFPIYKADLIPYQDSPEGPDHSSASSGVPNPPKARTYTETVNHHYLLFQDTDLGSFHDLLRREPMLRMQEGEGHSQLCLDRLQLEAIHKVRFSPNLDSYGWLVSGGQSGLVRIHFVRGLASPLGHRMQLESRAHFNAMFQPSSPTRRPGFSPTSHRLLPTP
# How it was run: as §1
# [3] = target: T3, A0A087X060|G3V2W9 and related entries (UniProt Q56P03)
# T3 sequence (whole entry): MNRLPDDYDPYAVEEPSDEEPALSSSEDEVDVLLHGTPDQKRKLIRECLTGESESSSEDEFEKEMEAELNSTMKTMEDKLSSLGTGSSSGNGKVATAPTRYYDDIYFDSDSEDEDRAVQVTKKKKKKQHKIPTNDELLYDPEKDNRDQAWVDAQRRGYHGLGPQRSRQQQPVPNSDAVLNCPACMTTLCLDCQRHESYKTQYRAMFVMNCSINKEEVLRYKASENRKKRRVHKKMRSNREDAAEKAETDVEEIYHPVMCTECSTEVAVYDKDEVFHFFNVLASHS
# How it was run: as §1
# [4] = target: T4, A0A087X0R6|Q9UMY4 and related entries (UniProt Q9UMY4)
# T4 sequence (whole entry): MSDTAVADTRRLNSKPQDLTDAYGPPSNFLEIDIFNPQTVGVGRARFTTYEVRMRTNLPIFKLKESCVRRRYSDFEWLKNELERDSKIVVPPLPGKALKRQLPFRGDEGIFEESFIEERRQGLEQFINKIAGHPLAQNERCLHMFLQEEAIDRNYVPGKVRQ
# How it was run: as §1
# [5] = target: T5, A0A087X142|A6NFQ9 and related entries (UniProt Q92599)
# T5 sequence (whole entry): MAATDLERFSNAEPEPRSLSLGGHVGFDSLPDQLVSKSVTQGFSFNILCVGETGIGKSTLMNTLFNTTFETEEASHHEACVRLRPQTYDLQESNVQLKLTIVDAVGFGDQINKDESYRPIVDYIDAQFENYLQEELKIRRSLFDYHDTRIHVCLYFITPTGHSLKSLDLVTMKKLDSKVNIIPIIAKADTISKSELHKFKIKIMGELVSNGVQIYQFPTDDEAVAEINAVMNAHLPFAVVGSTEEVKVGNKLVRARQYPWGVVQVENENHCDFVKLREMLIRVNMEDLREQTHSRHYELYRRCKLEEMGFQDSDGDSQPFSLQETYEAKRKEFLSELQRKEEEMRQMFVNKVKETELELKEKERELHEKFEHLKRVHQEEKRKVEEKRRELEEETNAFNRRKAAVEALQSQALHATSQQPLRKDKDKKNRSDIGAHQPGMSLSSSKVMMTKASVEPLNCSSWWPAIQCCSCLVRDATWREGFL
# How it was run: as §1
# [6] = target: T6, A0A0A0MRL7|P55210 and related entries (UniProt P55210)
# T6 sequence (whole entry): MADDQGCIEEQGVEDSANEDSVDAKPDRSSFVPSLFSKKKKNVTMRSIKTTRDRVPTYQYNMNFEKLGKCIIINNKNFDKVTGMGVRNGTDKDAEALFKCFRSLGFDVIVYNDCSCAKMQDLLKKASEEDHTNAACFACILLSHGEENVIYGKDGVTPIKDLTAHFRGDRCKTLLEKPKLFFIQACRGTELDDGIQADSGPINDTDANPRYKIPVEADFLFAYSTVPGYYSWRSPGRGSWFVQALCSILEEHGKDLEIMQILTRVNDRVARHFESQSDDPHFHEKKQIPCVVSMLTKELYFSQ
# How it was run: as §1
# [7] = target: T7, A0A0A0MSG2|J3KNW4 and related entries (UniProt Q14192)
# T7 sequence (whole entry): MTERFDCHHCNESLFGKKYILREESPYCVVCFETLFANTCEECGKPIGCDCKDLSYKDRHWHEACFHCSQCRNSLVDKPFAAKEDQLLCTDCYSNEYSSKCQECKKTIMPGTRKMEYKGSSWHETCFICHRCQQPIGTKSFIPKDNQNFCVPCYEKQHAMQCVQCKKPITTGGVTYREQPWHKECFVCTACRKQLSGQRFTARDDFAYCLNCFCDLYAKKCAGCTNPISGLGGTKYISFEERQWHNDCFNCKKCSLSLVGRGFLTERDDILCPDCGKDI
# How it was run: as §1
compound,measurement,setting,value
Nc1nc2c(ncn2[C@@H]2O[C@H](COP(=O)(O)OP(=O)(O)OP(=O)(O)O)[C@@H](O)[C@H]2O)c(=O)[nH]1 [guanosine triphosphate],NP40-soluble protein abundance,[1]; concentration: 0.1mM,0.9676 ± 0.0069
same,NP40-soluble protein abundance,[1]; concentration: 0.5mM,1.05 ± 0.015
same,NP40-soluble protein abundance,[1]; concentration: 1mM,1.09 ± 0.026
same,NP40-soluble protein abundance,[1]; concentration: 2mM,0.953 ± 0.093
same,NP40-soluble protein abundance,[1]; concentration: 4mM,0.996 ± 0.013
same,NP40-soluble protein abundance,[1]; concentration: 6mM,0.9467 ± 0.0086
same,NP40-soluble protein abundance,[1]; concentration: 8mM,1.12 ± 0.12
same,NP40-soluble protein abundance,[1]; concentration: 10mM,1.03 ± 0.043
same,NP40-soluble protein abundance,[2]; concentration: 0.1mM,1.06 ± 0.037
same,NP40-soluble protein abundance,[2]; concentration: 0.5mM,1.06 ± 0.059
same,NP40-soluble protein abundance,[2]; concentration: 1mM,1.06 ± 0.039
same,NP40-soluble protein abundance,[2]; concentration: 2mM,1.07 ± 0.075
same,NP40-soluble protein abundance,[2]; concentration: 4mM,1.11 ± 0.062
same,NP40-soluble protein abundance,[2]; concentration: 6mM,1.12 ± 0.037
same,NP40-soluble protein abundance,[2]; concentration: 8mM,1.096 ± 0.0052
same,NP40-soluble protein abundance,[2]; concentration: 10mM,1.11 ± 0.061
same,NP40-soluble protein abundance,[3]; concentration: 0.1mM,0.949 ± 0.11
same,NP40-soluble protein abundance,[3]; concentration: 0.5mM,0.984 ± 0.08
same,NP40-soluble protein abundance,[3]; concentration: 1mM,1.07 ± 0.027
same,NP40-soluble protein abundance,[3]; concentration: 2mM,1.08 ± 0.088
same,NP40-soluble protein abundance,[3]; concentration: 4mM,1.15 ± 0.15
same,NP40-soluble protein abundance,[3]; concentration: 6mM,1.14 ± 0.053
same,NP40-soluble protein abundance,[3]; concentration: 8mM,1.16 ± 0.18
same,NP40-soluble protein abundance,[3]; concentration: 10mM,1.13 ± 0.19
same,NP40-soluble protein abundance,[4]; concentration: 0.1mM,0.871 ± 0.063
same,NP40-soluble protein abundance,[4]; concentration: 0.5mM,0.8387 ± 0.0023
same,NP40-soluble protein abundance,[4]; concentration: 1mM,0.965 ± 0.035
same,NP40-soluble protein abundance,[4]; concentration: 2mM,0.94 ± 0.03
same,NP40-soluble protein abundance,[4]; concentration: 4mM,0.921 ± 0.057
same,NP40-soluble protein abundance,[4]; concentration: 6mM,0.884 ± 0.06
same,NP40-soluble protein abundance,[4]; concentration: 8mM,0.846 ± 0.08
same,NP40-soluble protein abundance,[4]; concentration: 10mM,0.929 ± 0.055
same,NP40-soluble protein abundance,[5]; concentration: 0.1mM,1.02 ± 0.087
same,NP40-soluble protein abundance,[5]; concentration: 0.5mM,1.02 ± 0.14
same,NP40-soluble protein abundance,[5]; concentration: 1mM,0.953 ± 0.17
same,NP40-soluble protein abundance,[5]; concentration: 2mM,1.02 ± 0.12
same,NP40-soluble protein abundance,[5]; concentration: 4mM,0.985 ± 0.12
same,NP40-soluble protein abundance,[5]; concentration: 6mM,0.975 ± 0.065
same,NP40-soluble protein abundance,[5]; concentration: 8mM,1.01 ± 0.17
same,NP40-soluble protein abundance,[5]; concentration: 10mM,0.943 ± 0.039
same,NP40-soluble protein abundance,[6]; concentration: 0.1mM,0.999 ± 0.086
same,NP40-soluble protein abundance,[6]; concentration: 0.5mM,1 ± 0.072
same,NP40-soluble protein abundance,[6]; concentration: 1mM,0.92 ± 0.083
same,NP40-soluble protein abundance,[6]; concentration: 2mM,0.915 ± 0.084
same,NP40-soluble protein abundance,[6]; concentration: 4mM,0.872 ± 0.093
same,NP40-soluble protein abundance,[6]; concentration: 6mM,0.903 ± 0.06
same,NP40-soluble protein abundance,[6]; concentration: 8mM,0.89 ± 0.085
same,NP40-soluble protein abundance,[6]; concentration: 10mM,0.901 ± 0.074
same,NP40-soluble protein abundance,[7]; concentration: 0.1mM,1.21 ± 0.29
same,NP40-soluble protein abundance,[7]; concentration: 0.5mM,1.06 ± 0.047
same,NP40-soluble protein abundance,[7]; concentration: 1mM,1.05 ± 0.19
same,NP40-soluble protein abundance,[7]; concentration: 2mM,1.08 ± 0.11

# 3 entries drawn at random from the list so far:
compound,measurement,setting,value
Nc1nc2c(ncn2[C@@H]2O[C@H](COP(=O)(O)OP(=O)(O)OP(=O)(O)O)[C@@H](O)[C@H]2O)c(=O)[nH]1 [guanosine triphosphate],NP40-soluble protein abundance,[2]; concentration: 0.1mM,1.06 ± 0.037
same,NP40-soluble protein abundance,[4]; concentration: 0.5mM,0.8387 ± 0.0023
same,NP40-soluble protein abundance,[3]; concentration: 10mM,1.13 ± 0.19
